# Laboratory results reported in PubChem BioAssay AID588590 (National Center for Advancing Translational Sciences (NCATS), 2011).
# Chains of the proteins cited; added tags and fusions are not shown. Lines headed by an entry give the natural chain unless they say otherwise; changes in a name come on top.
# UniProt Q9UNA4: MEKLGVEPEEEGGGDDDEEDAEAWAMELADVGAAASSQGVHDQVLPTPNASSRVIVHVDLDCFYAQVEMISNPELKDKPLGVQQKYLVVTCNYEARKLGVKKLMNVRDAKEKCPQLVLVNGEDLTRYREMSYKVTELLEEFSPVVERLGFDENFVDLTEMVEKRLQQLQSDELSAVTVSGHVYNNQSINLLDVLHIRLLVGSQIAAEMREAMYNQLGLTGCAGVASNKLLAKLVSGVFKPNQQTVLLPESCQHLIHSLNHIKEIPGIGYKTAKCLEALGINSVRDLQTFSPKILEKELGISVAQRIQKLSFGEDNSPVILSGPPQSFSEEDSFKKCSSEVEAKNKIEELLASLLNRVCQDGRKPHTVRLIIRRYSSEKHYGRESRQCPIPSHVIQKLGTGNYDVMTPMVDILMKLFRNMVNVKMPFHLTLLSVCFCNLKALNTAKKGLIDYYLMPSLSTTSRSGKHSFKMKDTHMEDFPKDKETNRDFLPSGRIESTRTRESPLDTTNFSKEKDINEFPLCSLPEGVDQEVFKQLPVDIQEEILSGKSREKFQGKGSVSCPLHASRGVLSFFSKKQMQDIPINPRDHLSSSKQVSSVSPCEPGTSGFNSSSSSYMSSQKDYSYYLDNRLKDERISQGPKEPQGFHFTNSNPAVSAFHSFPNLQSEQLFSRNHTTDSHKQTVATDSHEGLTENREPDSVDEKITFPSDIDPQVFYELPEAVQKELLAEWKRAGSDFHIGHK
# The whole screen tested about 390,000 compounds, of which about 4,000 (1%) were called active. This list was built around the results that the source calls inconclusive (neither active nor inactive); the mix of calls is not that of the screen. Calls come from the whole dose curve; as a rule, active = well fitted inhibition curve with a large enough effect; inconclusive = small, poorly fitted or top-dose-only effect, or another doubt; inactive = no such curve, though single readings can be large or run the other way. Where the call is inconclusive, the potency comes from a doubtful curve fit.
# Biological target: DNA polymerase iota (Homo sapiens) (UniProt Q9UNA4)
# Assay: qHTS for Inhibitors of Polymerase Iota
# Details: Pol iota fluorescent replication assay, 10 min; series mostly up to 115 µM; activity, negative = inhibition: at the top concentration
# Outline: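 Pol iota at 10 nM preincubated 15 min with compounds at room temperature; reaction started with fluorescent substrate, 50 nM final. Fluorescence read kinetically at 0 and 10 min; buffer-only wells as negative control.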
# Potency is the fitted concentration of half-maximal effect.
Compound,Potency,"activity, negative = inhibition"
CCOC(=O)C(Cc1c[nH]c2ccccc12)NC(=O)COc1ccc(Cl)cc1 (centres undefined),active: 79.4 µM,
COc1ccccc1NC(=O)/C(C#N)=C/C=C/c1ccco1,"inconclusive: 22.4 µM [inhibitor, partial curve, poor fit]",
COCCN(CCOC)C(=O)c1cc2c(=O)n3ccccc3nc2n1C,"inconclusive: 89.1 µM [inhibitor, partial curve, poor fit]",
Cc1c(Cl)cccc1NC(=O)CN1C(=O)CCn2nc(-c3cccn3C)cc21,,inactive: 13.8%
COc1ccc(N2C(=NC(=O)C3CCCCC3)SC3CS(=O)(=O)CC32)cc1OC (centres undefined),"inconclusive: 89.1 µM [inhibitor, single point]",
CC(C)Oc1ccc(CNC(=O)CCCn2c(=O)c3cccn3c3cccnc32)cc1,,inactive: 13.1%
Cc1ccc(S(=O)(=O)Nc2nc(C)c(C(=O)N/N=C/c3ccccc3)s2)cc1,"inconclusive: 79.4 µM [inhibitor, partial curve, poor fit]",
Cc1ccc(-c2nn(-c3ccccc3)cc2C2SCC(=O)N2Cc2ccccc2)o1 (centres undefined),"inconclusive: 112 µM [inhibitor, partial curve, poor fit]",
COc1cccc(C(=O)NC2=NC(c3ccc(N(C)C)cc3)CC(=O)N2)c1 (centres undefined),,inactive: 11.2%
Cc1[nH]n(-c2ccccc2)c(=O)c1C=Nc1cnc2ccccc2c1,"inconclusive: 15.8 µM [inhibitor, full curve, poor fit]",
COc1cc(C(=O)NNC(=O)c2cc(-c3ccccc3)n[nH]2)cc(OC)c1C,"inconclusive: 31.6 µM [inhibitor, partial curve, poor fit]",
O=c1cc(-c2ccc(O)cc2)oc2ccc(O)cc12,,inactive: 35.2%
Cc1ccc(S(=O)(=O)n2ccnc2)cc1C,"inconclusive: 0.631 µM [inhibitor, full curve, poor fit]",
COCCN1C(=O)CC(NNC(=O)c2ccc(S(=O)(=O)N3CCCC3)cc2)C1=O (centres undefined),,inactive: 27.2%
CC(C)C(CCNC(=O)CC(Cc1ccccc1)c1ccco1)c1ccco1 (centres undefined),"inconclusive: 14.1 µM [inhibitor, partial curve]",
CCCCOc1ccc(-c2cc3c(=O)n(CC(=O)Nc4ccc(Cl)cc4Cl)ccn3n2)cc1,"inconclusive: 100 µM [inhibitor, partial curve, poor fit]",
CCC(C)Sc1ccc(-c2nc3cnccn3c2NC2CCCCC2)cc1 (centres undefined),"inconclusive: 12.6 µM [inhibitor, partial curve, poor fit]",
CCC(C)[C@H](NC(=O)NCc1ccccn1)C(=O)OC (some centres undefined),"inconclusive: 100 µM [inhibitor, partial curve, poor fit]",
Cn1nnnc1Sc1ncnc2scc(-c3ccc(Br)cc3)c12,"inconclusive: 10 µM [inhibitor, partial curve, poor fit]",
COc1ccc(C(=O)CSc2nnc(-c3ccco3)n2CC2CCCO2)cc1 (centres undefined),"inconclusive: 39.8 µM [inhibitor, single point]",
Cc1cc(C)c2nc(-c3ccccn3)cc(C(=O)Nc3cc(C)on3)c2c1,"inconclusive: 10 µM [inhibitor, full curve, poor fit]",
COc1ccc(NC(=O)[C@@H](c2ccccc2)N2Cc3ccccc3C2=O)cc1OC,,inactive: 3.5%

Compound,Potency,"activity, negative = inhibition"
CCOc1ccccc1NC(=O)c1nc(S(=O)(=O)Cc2ccccc2)ncc1Cl,"inconclusive: 25.1 µM [inhibitor, single point]",
COCCCNC(=O)CC(NS(=O)(=O)c1ccc(Cl)cc1)c1ccc(OC)cc1 (centres undefined),"inconclusive: 112 µM [inhibitor, partial curve, poor fit]",
CCOc1ccc(/C=N/NC(=O)Cc2csc(Nc3cccc(C(F)(F)F)c3)n2)c(OCC)c1,"inconclusive: 3.16 µM [inhibitor, partial curve, poor fit]",
Cc1cc(C(F)(F)F)nn1Cc1n[nH]c(=S)n1Cc1ccccc1,,inactive: 7.85%
O=C(CN1C(=O)S/C(=C\c2ccc(F)cc2)C1=O)NCCCn1ccnc1,"inconclusive: 89.1 µM [inhibitor, single point]",
Cc1ccc(S(=O)(=O)NN2C(=O)/C(=C\c3ccc(Cl)cc3)SC2=S)cc1,"inconclusive: 14.1 µM [inhibitor, partial curve, poor fit]",
N#C/C(=C/c1ccc(N2CCOCC2)o1)c1ccc(Br)cc1,"inconclusive: 11.2 µM [inhibitor, partial curve]",
Cn1nccc1NC(=O)Nc1ccc(Cl)cc1,"inconclusive: 89.1 µM [inhibitor, single point]",
CCN(CC)c1cc(C)c2cc(NC(=O)/C=C/c3ccc(C)cc3)ccc2n1,,inactive: -3.1%
Cc1cccc(C(=O)NCc2nnc(SCc3ccc(F)cc3)n2C)c1,"inconclusive: 2 µM [inhibitor, full curve]",
C=CCN1C(=O)C2(c3ccccc31)C1CCCC=C1C(C#N)=C(N)C2(C#N)C#N (centres undefined),"inconclusive: 10 µM [inhibitor, partial curve]",
CC1(c2nnc(-c3cccc(Cl)c3)o2)CC(c2cccc([N+](=O)[O-])c2)=NO1 (centres undefined),"inconclusive: 25.1 µM [inhibitor, full curve, poor fit]",
Cc1cc[n+](-c2[nH]c(=O)sc2/C=N/N=C(\[O-])c2ccncc2)cc1,active: 39.8 µM,
CC1CCCCC1NC(=O)COC(=O)c1ccc(S(=O)(=O)NCc2ccco2)cc1 (centres undefined),"inconclusive: 20 µM [inhibitor, full curve, poor fit]",
O=C(COC(=O)c1ccc([N+](=O)[O-])s1)Nc1cccc(S(=O)(=O)NC2=NCCCCC2)c1,"inconclusive: 79.4 µM [inhibitor, partial curve, poor fit]",
COc1ccc(CC(=O)Nc2cccc(C(C)=O)c2)cc1S(=O)(=O)N1CCOCC1,"inconclusive: 1.58 µM [inhibitor, full curve, poor fit]",
Cc1ccccc1-n1c(C)n[nH]c1=S,"inconclusive: 79.4 µM [inhibitor, single point]",
COc1ccc(/C=N/NC(=O)c2ccc(Br)cc2)cc1Cn1cc(Cl)cn1,active: 50.1 µM,
Cc1cc(C)c(NS(=O)(=O)c2c(C)noc2C)c(C)c1,"inconclusive: 89.1 µM [inhibitor, single point]",
COc1cc(C(=S)N2CCOCC2)ccc1OC(=O)/C=C/c1ccco1,"inconclusive: 44.7 µM [inhibitor, partial curve, poor fit]",
CCCn1c(=S)[nH]c2ccccc2c1=O,"inconclusive: 50.1 µM [inhibitor, partial curve]",
O=C(C=CC(=O)OC1CCCCC1)OC1CCCCC1,"inconclusive: 79.4 µM [inhibitor, partial curve, poor fit]",

# Given as tab-separated lines: 2 of the compounds above
Compound	Potency	activity, negative = inhibition
CCOC(=O)C(Cc1c[nH]c2ccccc12)NC(=O)COc1ccc(Cl)cc1 (centres undefined)	active: 79.4 µM	
COc1ccc(/C=N/NC(=O)c2ccc(Br)cc2)cc1Cn1cc(Cl)cn1	active: 50.1 µM	

# Later entries.

Compound,Potency,"activity, negative = inhibition"
CCOc1cc(CNCCSc2nnnn2-c2ccccc2)cc(Cl)c1OC,,inactive: -2.18%
Cc1ccc(S(=O)(=O)/N=C2\C=C(Nc3cccc(C(=O)O)c3)C(=O)c3ccccc32)c(C)c1,active: 5.01 µM,
Cc1ccccc1C(OCC(O)CN1CCCCC1CCO)c1ccccc1 (centres undefined),"inconclusive: 39.8 µM [inhibitor, single point]",
COc1ccc(NC(=O)c2nnn(CC(=O)Nc3ccc4c(c3)OCO4)c2N)c(OC)c1,"inconclusive: 25.1 µM [inhibitor, partial curve, poor fit]",
CCOC(=O)Cc1cc(=O)n2[nH]c(-c3ccccc3)c(-c3ccccc3)c2n1,"inconclusive: 56.2 µM [inhibitor, partial curve, poor fit]",
CCc1ccc(OCC(=O)N/N=C\c2ccco2)c([N+](=O)[O-])c1,active: 20 µM,
COc1cc2nc(NC(=O)c3ccc(F)cc3Cl)sc(=O)c2cc1OC,"inconclusive: 14.1 µM [inhibitor, full curve, poor fit]",
Cc1ccc(SC[C@H](Cc2ccccc2)N2CCN(CCc3ccccc3)CCC2=O)cc1,"inconclusive: 14.1 µM [inhibitor, partial curve, poor fit]",
Cc1c(C(=O)NCc2ccc(N(C)C)cc2)oc2c1-c1nn(Cc3cccc(Cl)c3)cc1CC2,,inactive: 18%
Cc1c(Cl)cccc1NC(=O)c1cnc2sc(N3CCCC3)nn2c1=O,,inactive: 12.3%
CCN(C(=O)C1CCN(S(=O)(=O)c2ccc3c(c2)CCCN3C(=O)C2CCC2)CC1)c1cccc(C)c1,,inactive: 28.3%
CCOc1cc(/C=C(\C#N)c2nc(-c3cccs3)c(NC(C)=O)s2)ccc1O,"inconclusive: 20 µM [inhibitor, partial curve]",
COCc1cc(CNC(=O)C2CCC(=O)N(Cc3cccc(OC)c3)C2)[nH]n1 (centres undefined),,inactive: 15.4%
COc1ccc(S(=O)(=O)c2cn(C)c3cc(N4CCCC4)c(F)cc3c2=O)cc1,"inconclusive: 89.1 µM [inhibitor, single point]",
Cc1cc(O)c(/C=N/c2ccccn2)c(=O)o1,"inconclusive: 35.5 µM [inhibitor, single point]",
CCOc1ccc(/C=N/O)cc1,"inconclusive: 22.4 µM [inhibitor, single point]",
Cc1cc(C)cc(NC(=O)Cn2c(=O)oc3cc(S(=O)(=O)N4CCCC4)ccc32)c1,,inactive: -28.7%
Cc1cc(C(=O)CSc2nc(N)cc(=O)[nH]2)c(C)n1CC1CCCO1 (centres undefined),"inconclusive: 20 µM [inhibitor, full curve, poor fit]",
O=C(CSC(=S)N1CCOCC1)c1cc2ccccc2oc1=O,"inconclusive: 12.6 µM [inhibitor, full curve, poor fit]",
CCn1cc(C(=O)OCC(=O)Nc2cc(C)cc(C)c2)c(=O)c2ccc(C)nc21,"inconclusive: 89.1 µM [inhibitor, single point]",
